From PMC10553838, “Functional and structural insights into the multi-step activation and catalytic mechanism of bacterial ExoY nucleotidyl cyclase toxins bound to actin-profilin” (PLOS Pathogens, 2023)

Molecular target: human profilin (human)
Assay: crystal structure; VnE^DM-PRM-Prof with actin-ADP-LatB and VnE-PRM-Prof (SO4 2- bound) with actin-ADP; 1.7 Å; both purified

For PPPPP [short profilin-binding proline-rich motif (PRM) of the VnE-PRM-Prof chimera], the binding was “binds”.

Results are given in words; binding and its absence hold for the method and conditions named. A result given as binding can be weak or reduced; the word gives no strength.
